The other results are listed elsewhere or left out.

Common to all, as to assay: glycan array binding signal (z-score within array); higher = stronger binding
Settings in all cases: glycan notation: IUPAC condensed, linker removed

Experiment [1] addresses Neu5Ac9Ac(a2-3)Gal(b1-4)GlcNAc. The procedure, abridged: (§1)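 Columns mapping to the same glycan were averaged after glycan names were converted to IUPAC-condensed notation. The data come from 3228 arrays in the Consortium for Functional Glycomics database, limited to those with an available protein sequence. Binding is reported as a within-array Z-score averaged across arrays of one protein sequence and across linkers.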

Experiment [2] has as its target Neu5Ac9Ac(a2-6)Gal(b1-4)GlcNAc. The procedure, abridged: as §1
Experiment [3] deals with Neu5Gc(a2-3)Gal(b1-3)GlcNAc. The gist of the method: as §1
Experiment [4] has as its target Neu5Gc(a2-3)Gal(b1-3)[Fuc(a1-4)]GlcNAc. The procedure, abridged:
as §1

In the next experiment the target is Neu5Gc(a2-3)Gal(b1-4)Glc. The procedure, abridged: as §1
The target of experiment [5] is Neu5Gc(a2-3)Gal(b1-4)GlcNAc. The procedure, abridged: as §1
Experiment [6] deals with Neu5Gc(a2-3)Gal(b1-4)[Fuc(a1-3)]GlcNAc. The gist of the method: as §1
The target of experiment [7] is Neu5Gc(a2-6)Gal(b1-4)GlcNAc. The procedure, abridged: as §1
Another experiment concerns the target Neu5Gc(a2-6)GalNAc. The gist of the method: as §1
The target in experiment [8] is Neu5Gc(b2-6)Gal(b1-4)GlcNAc. The procedure, abridged:
as §1

B1: PGP3 (Chlamydia trachomatis), P0CE18 (protein)
chain: MGNSGFYLYNTQNCVFADNIKVGQMTEPLKDQQIILGTTSTPVAAKMTASDGISLTVSNNPSTNASITIGLDAEKAYQLILEKLGDQILGGIADTIVDSTVQDILDKITTDPSLGLLKAFNNFPITNKIQCNGLFTPRNIETLLGGTEIGKFTVTPKSSGSMFLVSADIIASRMEGGVVLALVREGDSKPYAISYGYSSGVPNLCSLRTRIINTGLTPTTYSLRVGGLESGVVWVNALSNGNDILGITNTSNVSFLEVIPQTNA
Turning to B1, the “glycan array binding signal (z-score)” value was 1.72 in [1]; 0.589 in experiment [2]; 0.962 in experiment [3]; 2.46 in experiment [4]; 1.1 in the experiment with Neu5Gc(a2-3)Gal(b1-4)Glc; 0.126 in [5]. For the same molecule, the “glycan array binding signal (z-score)” value in experiment [6] is 1.36; in experiment [7], -1.74; with Neu5Gc(a2-6)GalNAc, 1.37; in [8], -1.1.

For the origin of these results see the supplement of paper PMC8728848.
